Assay results reported in the supplement of paper PMC6078165.
Values are relative to the signal before dosing, not to a vehicle control; the signal also falls without drug.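 Labels refer to human fibroblasts, largely primary: uterine (C12385, HUF), lung (H6013), bone (Hs27A), adrenal (HADF), skin (WS1), plus mammary HMF and breast cancer-associated Hs343T. Cancer lines are basal-like or mesenchymal-like triple-negative breast cancer. The paper counts as hits responses shifting over 3x the replicate standard deviation. The tissue of the other fibroblasts is not given here.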

Test system: MDAMB436
Assay: relative JC-1 red fluorescence (viability) vs pre-drug, coculture with fibroblast (fraction); higher = more viable cancer cells
Description: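 JC-1 labelled TNBC cells cocultured 1:1 (1,500 cells each) with CellTrace Violet stained primary or stromal fibroblasts in 384-well plates in FluoroBrite medium, treated with one of 42 anticancer drugs at 0.1, 1, 10 or 100 uM. JC-1 red fluorescence (mitochondrial integrity in cancer cells only) was read by plate reader every 8 h for 72 h. Values are normalised to each well's pre-drug value. The stock of one drug was tenfold lower, so its dose labels may be too high.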

CN(C)CCOc1ccc(/C(=C(/CCCl)c2ccccc2)c2ccccc2)cc1 [Toremifene]
relative JC-1 red fluorescence
Details | 8 h | 16 h | 24 h | 32 h | 40 h | 48 h | 56 h | 64 h | 72 h
0.1 µM, coculture fibroblast: C12385 | 0.7677 | 0.6657 | 0.63 | 0.53 | 0.476 | 0.45 | 0.428 | 0.413 | 0.406
0.1 µM, coculture fibroblast: H6013 | 0.783 | 0.7273 | 0.703 | 0.6888 | 0.666 | 0.682 | 0.631 | 0.621 | 0.576
0.1 µM, coculture fibroblast: H6019 | 0.697 | 0.64453 | 0.602 | 0.523 | 0.478 | 0.451 | 0.423 | 0.394 | 0.369
0.1 µM, coculture fibroblast: H6076 | 0.733 | 0.6643 | 0.6459 | 0.601 | 0.593 | 0.57626 | 0.595 | 0.5815 | 0.5726
0.1 µM, coculture fibroblast: H6231 | 0.75 | 0.669 | 0.696 | 0.614 | 0.607 | 0.579 | 0.562 | 0.543 | 0.524
0.1 µM, coculture fibroblast: HADF | 0.822 | 0.719 | 0.696 | 0.664 | 0.644 | 0.665 | 0.607 | 0.599 | 0.564
0.1 µM, coculture fibroblast: HCFa | 0.755 | 0.707 | 0.669 | 0.627 | 0.599 | 0.603 | 0.541 | 0.522 | 0.468
0.1 µM, coculture fibroblast: HCPF | 0.7189 | 0.672 | 0.679 | 0.621 | 0.618 | 0.583 | 0.576 | 0.559 | 0.547
0.1 µM, coculture fibroblast: HHSteC | 0.7917 | 0.757 | 0.728 | 0.683 | 0.674 | 0.686 | 0.623 | 0.601 | 0.54
0.1 µM, coculture fibroblast: HMF | 0.707 | 0.66 | 0.6287 | 0.5836 | 0.5734 | 0.54 | 0.538 | 0.513 | 0.5096
0.1 µM, coculture fibroblast: HPFa | 0.885 | 0.786 | 0.749 | 0.7 | 0.677 | 0.6784 | 0.599 | 0.5709 | 0.4906
0.1 µM, coculture fibroblast: HUF | 0.836 | 0.759 | 0.749 | 0.676 | 0.631 | 0.601 | 0.577 | 0.563 | 0.558
0.1 µM, coculture fibroblast: Hs5 | 0.765 | 0.72 | 0.714 | 0.663 | 0.659 | 0.618 | 0.63 | 0.605 | 0.607
0.1 µM, coculture fibroblast: Hs27A | 0.82 | 0.735 | 0.685 | 0.653 | 0.629 | 0.674 | 0.581 | 0.559 | 0.489
0.1 µM, coculture fibroblast: Hs343T | 0.79 | 0.731 | 0.68 | 0.627 | 0.578 | 0.532 | 0.508 | 0.49 | 0.4726
0.1 µM, coculture fibroblast: WS1 | 0.7736 | 0.668 | 0.6225 | 0.53 | 0.472 | 0.437 | 0.401 | 0.368 | 0.355
1 µM, coculture fibroblast: C12385 | 0.852 | 0.783 | 0.679 | 0.631 | 0.578 | 0.548 | 0.523 | 0.5 | 0.496
1 µM, coculture fibroblast: H6013 | 0.8913 | 0.799 | 0.792 | 0.784 | 0.758 | 0.756 | 0.727 | 0.704 | 0.661
1 µM, coculture fibroblast: H6019 | 0.8012 | 0.735 | 0.708 | 0.654 | 0.6131 | 0.581 | 0.5503 | 0.513 | 0.48512
1 µM, coculture fibroblast: H6076 | 0.851 | 0.783 | 0.775 | 0.733 | 0.715 | 0.684 | 0.678 | 0.6705 | 0.6528
1 µM, coculture fibroblast: H6231 | 0.81 | 0.73 | 0.716 | 0.657 | 0.624 | 0.592 | 0.575 | 0.528 | 0.502
1 µM, coculture fibroblast: HADF | 0.8642 | 0.788 | 0.762 | 0.714 | 0.685 | 0.682 | 0.626 | 0.607 | 0.565
1 µM, coculture fibroblast: HCFa | 0.8533 | 0.781 | 0.7591 | 0.721 | 0.68 | 0.678 | 0.611 | 0.589 | 0.521
1 µM, coculture fibroblast: HCPF | 0.868 | 0.794 | 0.7717 | 0.723 | 0.691 | 0.647 | 0.607 | 0.578 | 0.55
1 µM, coculture fibroblast: HHSteC | 0.884 | 0.823 | 0.7613 | 0.7158 | 0.6804 | 0.66623 | 0.6054 | 0.57624 | 0.5165
1 µM, coculture fibroblast: HMF | 0.83924 | 0.757 | 0.717 | 0.686 | 0.655 | 0.612 | 0.602 | 0.585 | 0.563
1 µM, coculture fibroblast: HPFa | 0.9137 | 0.871 | 0.8187 | 0.767 | 0.744 | 0.73 | 0.646 | 0.599 | 0.518
1 µM, coculture fibroblast: HUF | 0.8749 | 0.779 | 0.745 | 0.665 | 0.608 | 0.581 | 0.552 | 0.537 | 0.523
1 µM, coculture fibroblast: Hs5 | 0.848 | 0.7765 | 0.752 | 0.699 | 0.678 | 0.64 | 0.633 | 0.598 | 0.58
1 µM, coculture fibroblast: Hs27A | 0.8737 | 0.795 | 0.769 | 0.7408 | 0.7123 | 0.726 | 0.64523 | 0.6183 | 0.541
1 µM, coculture fibroblast: Hs343T | 0.8406 | 0.777 | 0.75079 | 0.712 | 0.6889 | 0.6618 | 0.6406 | 0.6225 | 0.607
1 µM, coculture fibroblast: WS1 | 0.8432 | 0.749 | 0.695 | 0.631 | 0.581 | 0.546 | 0.525 | 0.499 | 0.485
10 µM, coculture fibroblast: C12385 | 0.8389 | 0.802 | 0.788 | 0.73 | 0.696 | 0.668 | 0.638 | 0.609 | 0.587
10 µM, coculture fibroblast: H6013 | 0.879 | 0.86 | 0.844 | 0.857 | 0.837 | 0.846 | 0.806 | 0.787 | 0.752
10 µM, coculture fibroblast: H6019 | 0.806 | 0.873 | 0.964 | 0.862 | 0.831 | 0.783 | 0.9888 | 0.9647 | 0.9356
10 µM, coculture fibroblast: H6076 | 0.805 | 0.902 | 0.829 | 0.926 | 0.841 | 0.921 | 0.884 | 0.877 | 0.845
10 µM, coculture fibroblast: H6231 | 0.881 | 0.798 | 0.775 | 0.693 | 0.658 | 0.635 | 0.585 | 0.54 | 0.521
10 µM, coculture fibroblast: HADF | 0.833 | 0.816 | 0.824 | 0.842 | 0.847 | 0.861 | 0.821 | 0.799 | 0.742
10 µM, coculture fibroblast: HCFa | 0.877 | 0.803 | 0.831 | 0.896 | 0.9247 | 0.871 | 0.816 | 0.773 | 0.849
10 µM, coculture fibroblast: HCPF | 0.845 | 0.781 | 0.8223 | 0.772 | 0.734 | 0.694 | 0.652 | 0.604 | 0.581
10 µM, coculture fibroblast: HHSteC | 0.855 | 0.74 | 0.828 | 0.752 | 0.838 | 0.815 | 0.752 | 0.712 | 0.652
10 µM, coculture fibroblast: HMF | 0.787 | 0.78 | 0.808 | 0.778 | 0.762 | 0.725 | 0.684 | 0.638 | 0.605
10 µM, coculture fibroblast: HPFa | 0.8509 | 0.768 | 0.745 | 0.712 | 0.689 | 0.668 | 0.617 | 0.595 | 0.544
10 µM, coculture fibroblast: HUF | 0.856 | 0.827 | 0.829 | 0.79 | 0.752 | 0.725 | 0.689 | 0.661 | 0.6422
10 µM, coculture fibroblast: Hs5 | 0.8097 | 0.7887 | 0.794 | 0.743 | 0.73 | 0.7 | 0.714 | 0.68 | 0.686
10 µM, coculture fibroblast: Hs27A | 0.874 | 0.845 | 0.873 | 0.773 | 0.776 | 0.861 | 0.7378 | 0.778 | 0.725
10 µM, coculture fibroblast: Hs343T | 0.855 | 0.869 | 0.873 | 0.842 | 0.811 | 0.753 | 0.707 | 0.681 | 0.663
10 µM, coculture fibroblast: WS1 | 0.822 | 0.84 | 0.936 | 0.891 | 0.871 | 0.889 | 0.856 | 0.853 | 0.848
100 µM, coculture fibroblast: C12385 | 0.635 | 0.513 | 0.48 | 0.4003 | 0.3393 | 0.3 | 0.266 | 0.233 | 0.2
100 µM, coculture fibroblast: H6013 | 0.71 | 0.6 | 0.586 | 0.555 | 0.511 | 0.507 | 0.427 | 0.385 | 0.317
100 µM, coculture fibroblast: H6019 | 0.686 | 0.57 | 0.57 | 0.506 | 0.47 | 0.436 | 0.398 | 0.354 | 0.32
100 µM, coculture fibroblast: H6076 | 0.595 | 0.482 | 0.442 | 0.364 | 0.305 | 0.233 | 0.187 | 0.139 | 0.0998
100 µM, coculture fibroblast: H6231 | 0.7 | 0.523 | 0.461 | 0.339 | 0.278 | 0.21905 | 0.1824 | 0.135 | 0.094
100 µM, coculture fibroblast: HADF | 0.731 | 0.585 | 0.542 | 0.492 | 0.437 | 0.439 | 0.345 | 0.308 | 0.233
100 µM, coculture fibroblast: HCFa | 0.82725 | 0.718 | 0.705 | 0.649 | 0.603 | 0.606 | 0.497 | 0.456 | 0.358
100 µM, coculture fibroblast: HCPF | 0.599 | 0.478 | 0.3914 | 0.305 | 0.255 | 0.192 | 0.134 | 0.0924 | 0.0509
100 µM, coculture fibroblast: HHSteC | 0.808 | 0.748 | 0.717 | 0.649 | 0.627 | 0.621 | 0.519 | 0.474 | 0.396
100 µM, coculture fibroblast: HMF | 0.596 | 0.449 | 0.384 | 0.309 | 0.262 | 0.2013 | 0.1529 | 0.0988 | 0.0625
100 µM, coculture fibroblast: HPFa | 0.923 | 0.81 | 0.769 | 0.708 | 0.677 | 0.672 | 0.568 | 0.519 | 0.441
100 µM, coculture fibroblast: HUF | 0.7 | 0.571 | 0.571 | 0.509 | 0.46 | 0.426 | 0.389 | 0.362 | 0.334
100 µM, coculture fibroblast: Hs5 | 0.675 | 0.558 | 0.534 | 0.439 | 0.375 | 0.279 | 0.241 | 0.178 | 0.132
100 µM, coculture fibroblast: Hs27A | 0.622 | 0.531 | 0.48 | 0.428 | 0.392 | 0.424 | 0.314 | 0.29 | 0.212
100 µM, coculture fibroblast: Hs343T | 0.615 | 0.496 | 0.477 | 0.377 | 0.333 | 0.235 | 0.184 | 0.1346 | 0.102
100 µM, coculture fibroblast: WS1 | 0.602 | 0.44 | 0.412 | 0.336 | 0.294 | 0.258 | 0.228 | 0.192 | 0.169
